Earlier results on one molecule are cited in publication PMC11973072, “Computational screening for novel α-glucosidase inhibitory peptides from Chlamys nobilis adductor muscle as a potential antidiabetic agent” (Frontiers in Nutrition, 2025).

Sequences of proteins named here, by UniProt entry; tags and fusion partners are left off.
UniProt P53341, whole entry: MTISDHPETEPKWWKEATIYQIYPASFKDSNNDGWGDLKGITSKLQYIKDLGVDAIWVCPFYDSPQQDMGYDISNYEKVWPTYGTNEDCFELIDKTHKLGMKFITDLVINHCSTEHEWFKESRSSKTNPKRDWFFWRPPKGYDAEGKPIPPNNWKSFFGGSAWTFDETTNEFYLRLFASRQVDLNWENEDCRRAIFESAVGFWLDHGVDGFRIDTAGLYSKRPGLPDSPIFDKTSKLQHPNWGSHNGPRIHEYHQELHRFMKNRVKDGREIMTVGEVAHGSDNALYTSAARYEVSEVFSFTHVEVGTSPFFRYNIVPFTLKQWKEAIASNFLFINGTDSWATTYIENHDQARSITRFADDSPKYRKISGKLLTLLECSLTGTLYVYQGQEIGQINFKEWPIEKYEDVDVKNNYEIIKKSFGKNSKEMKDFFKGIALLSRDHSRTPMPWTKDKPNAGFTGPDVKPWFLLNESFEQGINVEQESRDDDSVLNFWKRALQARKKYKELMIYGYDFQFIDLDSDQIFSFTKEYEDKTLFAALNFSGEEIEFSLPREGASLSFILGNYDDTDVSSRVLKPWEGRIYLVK

Structures were worked out from names or drawings and are uncertain.

For this data set, the target named is α-glucosidase (Saccharomyces cerevisiae, UniProt P53341). The note with it: read-out: IC50 value for α-glucosidase inhibition; from almond oil production residues; cited from earlier work.

`N[C@@H](Cc1c[nH]c2ccccc12)C(=O)N[C@@H](Cc1c[nH]cn1)C(=O)O`: the half-inhibitory concentration (IC50) (as a rule, the concentration that inhibits the measured activity by half) was 17 µM.
